This note sets out measurements from the supplement of paper PMC12823440, “Inhibitors supercharge kinase turnover through native proteolytic circuits” (Nature, 2025).

Protein sequences, listed by entry. Tags and fused reporters are not part of them. Lines headed by an entry give the natural chain unless they say otherwise; changes in a name come on top.
UniProt P14616: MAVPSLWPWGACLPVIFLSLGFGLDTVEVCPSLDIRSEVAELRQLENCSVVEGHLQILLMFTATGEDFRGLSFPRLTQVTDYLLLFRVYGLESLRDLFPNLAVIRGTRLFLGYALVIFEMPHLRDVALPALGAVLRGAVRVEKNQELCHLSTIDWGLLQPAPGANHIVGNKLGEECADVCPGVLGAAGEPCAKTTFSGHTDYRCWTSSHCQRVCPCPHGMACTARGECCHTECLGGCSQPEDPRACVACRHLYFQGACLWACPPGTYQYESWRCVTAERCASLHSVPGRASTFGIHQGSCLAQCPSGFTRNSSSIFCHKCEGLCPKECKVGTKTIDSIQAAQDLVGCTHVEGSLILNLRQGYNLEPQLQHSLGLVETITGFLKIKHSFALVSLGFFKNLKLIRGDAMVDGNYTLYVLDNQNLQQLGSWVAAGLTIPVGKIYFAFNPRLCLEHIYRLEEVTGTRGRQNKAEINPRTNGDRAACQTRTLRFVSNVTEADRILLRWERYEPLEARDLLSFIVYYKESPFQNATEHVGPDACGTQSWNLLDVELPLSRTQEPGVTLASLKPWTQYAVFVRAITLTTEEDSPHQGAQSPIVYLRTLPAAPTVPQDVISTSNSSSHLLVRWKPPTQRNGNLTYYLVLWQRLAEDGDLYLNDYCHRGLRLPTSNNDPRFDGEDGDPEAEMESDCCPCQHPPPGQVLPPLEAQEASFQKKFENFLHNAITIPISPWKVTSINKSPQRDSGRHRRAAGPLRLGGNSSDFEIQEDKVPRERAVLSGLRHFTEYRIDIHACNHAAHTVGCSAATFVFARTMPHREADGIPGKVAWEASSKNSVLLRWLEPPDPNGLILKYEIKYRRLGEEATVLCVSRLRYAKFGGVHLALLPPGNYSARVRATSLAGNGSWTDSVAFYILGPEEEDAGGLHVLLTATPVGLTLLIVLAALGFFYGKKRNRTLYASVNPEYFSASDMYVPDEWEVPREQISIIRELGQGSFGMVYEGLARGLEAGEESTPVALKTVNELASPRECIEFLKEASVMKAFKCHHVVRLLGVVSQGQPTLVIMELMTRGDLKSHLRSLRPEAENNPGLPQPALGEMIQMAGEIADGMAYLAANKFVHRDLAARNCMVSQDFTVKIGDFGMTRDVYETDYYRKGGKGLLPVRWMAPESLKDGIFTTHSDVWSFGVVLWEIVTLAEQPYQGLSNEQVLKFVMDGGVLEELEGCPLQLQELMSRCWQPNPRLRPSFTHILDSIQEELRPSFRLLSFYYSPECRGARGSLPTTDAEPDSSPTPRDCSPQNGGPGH

Structures can show the parent of a compound that is named as a salt. The list shows a part of the results. Hit calls seldom repeat between salt and free forms of one compound.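 Kinases were expressed as nanoluciferase fusions in K562 cells and luminescence was read every 4 h between 2 and 18 h as percent of control, DMSO set to 100% and a positive control to 0%. A time point counts as decreased when the signal drops significantly (2 sigma). The hit call is the authors' own, does not follow from the count of time points alone, and its rule is not shown.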

The target in the first experiment is HER2 (UniProt P04626). Put plainly: number of time points (of 5) at which kinase-Nluc abundance scored as decreased, DMSO-normalised (count); higher = more persistent destabilization. The following applies: K562; 2-18 h.
`Fc1c(Br)cccc1Nc1ncnc2cc3c(cc12)OCCO3` (2.5 µM): the “number of time points” value worked out at 1.

Consider `CN(C)c1ncnc2nc[nH]c12` [6-(Dimethylamino)purine] (10 µM), for which the “number of time points” value turned out to be 0.

In the case of `CN(C)Cc1cccc(N=C(c2ccccc2)c2c(O)[nH]c3cc(C(=O)N(C)C)ccc23)c1` (10 µM), the “number of time points” value turned out to be 0. The same measure, in the same setting: then `Cn1cc(-c2ccc3nnc(C(F)(F)c4ccc5ncccc5c4)n3n2)cn1` (10 µM), with 0.

The target of another experiment is INSRR (UniProt P14616). The description is as above. The following applies: K562; 2-18 h.
As for `CC(C)c1ccc(CC(=O)N2CCN(c3ccc(C#N)nn3)CC2)cc1` (10 µM), the “number of time points” value stood at 0. As to `C=CC(=O)N1CCC[C@@H](n2nc(C(=O)Nc3ccc(CC(=O)N(C)C)c(C)c3C)c3c(N)ncnc32)C1` (10 µM), the “number of time points” value amounted to 0. On to `O=C(O)CCc1ccc(NCc2cccc(Oc3ccccc3)c2)cc1` (10 µM), for which the “number of time points” value was determined as 0.

Take `CCc1c(C)sc(NC(=S)NC(=O)c2ccc(Cl)cc2)c1C(N)=O` (10 µM): the “number of time points” value is 0. On to `C=CC(=O)Nc1cccc(-n2c(=O)cc(C)c3cnc(Nc4ccc(OCCN(C)C)cc4OC)nc32)c1` (10 µM), for which the “number of time points” value was found to be 0.

With `C=C(F)C(=O)N1CCN(c2nc(OC[C@@H]3CCCN3C)nc3c2CCN(c2cccc4cccc(Cl)c24)C3)C[C@@H]1CC#N` (2.5 µM), the “number of time points” value came to 0. As for `COc1ncc(Nc2ncc([C@@H](C)N3CCN(S(C)(=O)=O)CC3)cc2-c2nc(C)nc(N)n2)cc1F` (10 µM), the “number of time points” value came out at 0. Still for that read-out and setting: then `COc1ccc2c(c1OC)OC1c3ccc(O)cc3OCC21` (configuration not stated) [Methylnissolin] (10 µM), with 0; and `O=C(CO)N1CCC(c2n[nH]c(-c3ccc(Cl)cc3)c2-c2ccncn2)CC1` (10 µM), with 0. Turning to `O=C1NC(=O)/C(=C/c2ccc(-c3ccc(F)cc3O)o2)S1` (10 µM), the “number of time points” value stood at 0.

Take `Cc1cc(C(C)Nc2ccccc2)c2nc(N3CCOCC3)cc(=O)n2c1` (configuration not stated) (10 µM): the “number of time points” value stood at 0. The same measure, in the same setting: then `Cc1cccc(-c2[nH]ncc2-c2ccc3ncccc3n2)n1` (10 µM), with 0; and `Cc1cc2ncc(-c3ccccc3)nc2cc1C` (10 µM), with 0. Turning to `COc1cc(C(=O)N2CCC(N3CCN(C)CC3)CC2)ccc1Nc1ncc2c(n1)N(C)c1ccccc1C(=O)N2C` (10 µM), the “number of time points” value came to 0. For the molecule `COc1cnccc1Nc1nc(-c2nn(Cc3c(F)cc(OCCO)cc3F)c3ccccc23)ncc1OC` (10 µM), the “number of time points” value came out at 0. Regarding `C[C@@H]1COCCN1c1cc(C2([S@](C)(=N)=O)CC2)nc(-c2cc[nH]c3nccc2-3)n1` [Ceralasertib] (2.5 µM), the “number of time points” value is 0. Same read-out and setting: the value for `CC(C)C[C@H](NC(=O)[C@H](CCCCN)NC(=O)[C@H](CO)NC(=O)[C@@H](N)CC(C)C)C(N)=O` [LSKL, Inhibitor of Thrombospondin (TSP-1) (TFA)] (10 µM) was 0; that for `Cn1cc(-c2cc3c(N4CCN(c5ncc([C@@](C)(N)c6ccc(F)cc6)cn5)CC4)ncnn3c2)cn1` [Avapritinib] (2.5 µM) was 0; that for `CC(C)(C)C(=O)N1N=CC[C@H]1c1ccccc1` (10 µM) was 0. The same measure, in the same setting: then `N#Cc1ccc(-c2c(-c3ncn[nH]3)sc(N3CCOCC3)c2C#N)c(F)c1` (10 µM), with 0; and `O=[N+]([O-])c1ccc(Sc2cccc[n+]2[O-])c2nonc12` (2.5 µM), with 0. Consider `Nc1nc2cc(-c3ccc4ncc(C(=O)N5CCOCC5)n4c3)ccc2o1` [Serabelisib] (10 µM), for which the “number of time points” value worked out at 0. Same read-out and setting: the value for `NCCCCCCNS(=O)(=O)c1cccc2c(Cl)cccc12` [W-7 (hydrochloride)] (10 µM) was 0. Regarding `COc1ccc(CCNc2ncc3c(=O)n(-c4cccc(F)c4)c(=O)[nH]c3n2)cc1OC` (2 µM), the “number of time points” value worked out at 0. As to `CCc1ccc(C(=O)COc2ccc(CC3SC(=O)NC3=O)cc2)nc1` (configuration not stated) (10 µM), the “number of time points” value came to 0. Still for that read-out and setting: the value for `Nc1cc(C(F)F)c(-c2nc(N3C4CCC3COC4)nc(N3C4CCC3COC4)n2)cn1` (2.5 µM) was 0. As to `CC(C)(C)c1cc(C(c2cc3c(cc2O)OCO3)N2CCOCC2)cc(C(C)(C)C)c1O` (configuration not stated) (2.5 µM), the “number of time points” value came to 0. The same measure, in the same setting: then `N#C/C(=C(/N)Sc1ccc(N)cc1)c1ccccc1C(F)(F)F` (10 µM), with 0; and `CC(C)c1cnn2c(NCc3ccccc3-n3cccn3)nc(OC3CCCNC3)nc12` (configuration not stated) (2.5 µM), with 0; and `COc1cc(C(C)=O)cc(OC)c1O` [Acetosyringone] (10 µM), with 0. As to `O=S(=O)(c1cccc2cnccc12)N1CCNCC1` (10 µM), the “number of time points” value is 0. Still for that read-out and setting: then `CN1C(=O)NC(Cc2c[nH]c3c(Cl)cccc23)C1=O` (racemic) [Necrostatin 2 (racemate)] (10 µM), with 0. Still for that read-out and setting: then `COc1ccc2c(c1)c(C1=C(c3c[nH]c4ccccc34)C(=O)NC1=O)cn2CCCN(C)C` (10 µM), with 0. As for `COc1cc(-c2cc(-c3cc(OC)c(OC)c(OC)c3)cc(C(F)P(=O)(OCOC(=O)C(C)(C)C)OCOC(=O)C(C)(C)C)c2)cc(OC)c1OC` (configuration not stated) [Stafia-1-dipivaloyloxymethyl ester] (2.5 µM), the “number of time points” value stood at 0.

For the molecule `Fc1c(Br)cccc1Nc1ncnc2cc3c(cc12)OCCO3` (2.5 µM), the “number of time points” value came out at 1. On the same count and under the same terms, the value for `CN(C)c1ncnc2nc[nH]c12` [6-(Dimethylamino)purine] (10 µM) was 0. Turning to `CN(C)Cc1cccc(N=C(c2ccccc2)c2c(O)[nH]c3cc(C(=O)N(C)C)ccc23)c1` (10 µM), the “number of time points” value was 0.

`Cn1cc(-c2ccc3nnc(C(F)(F)c4ccc5ncccc5c4)n3n2)cn1` (10 µM): the “number of time points” value was 0.
